Experimental data taken from patent US20230242607A1 (EUTILEX, published 2023).
Results are given in words; binding and its absence hold for the method and conditions named. Some entries that bind do so weakly or less than the wild type. Where a sequence is shown, tags or fusion partners need not be part of it.

Target: T1, IL2-RB (UniProt P14784 27-239, limits assumed)
T1 construct: Bought recombinant protein (Sino); also called CD122; IL-2Rβ
T1 sequence (looked up): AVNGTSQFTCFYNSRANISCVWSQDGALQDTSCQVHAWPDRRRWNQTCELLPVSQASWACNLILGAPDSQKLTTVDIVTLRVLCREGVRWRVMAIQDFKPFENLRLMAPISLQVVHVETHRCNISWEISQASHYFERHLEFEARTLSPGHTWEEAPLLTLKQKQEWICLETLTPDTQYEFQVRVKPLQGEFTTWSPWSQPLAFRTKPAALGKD
Assay: SPR, Biacore T200; IL-2-Fc on CM5 chip, receptor injected; 1:1 model

binding: binds
B1: IL2_V4 Fc fusion protein (Fc fusion)
chain: APTSSSTKKTQLQLEHLLLDLQMILNGINNYKNPKLTAMLTKKFYMPKKATELKHLQCLEEELKPLEEVLNLAQSKNFHFDPRDVISNINVFVLELKGSETTFMCEYADETATIVEFLNRWITFCQSIISTLTGGGGSSNTKVDKRVEPKSCDKTHTCPPCPAPPVAGPSVFLFPPKPKDTLMISRTPEVTCVVVDVSHEDPEVQFNWYVDGVEVHNAKTKPREEQFNSTFRVVSVLTVVHQDWLNGKEYKCKVSNKGLPAPIEKTISKTKGQPREPQVYTLPPSREEMTKNQVSLTCLVKGFYPSDIAVEWESNGQPENNYKTTPPMLDSDGSFFLYSKLTVDKSRWQQGNVFSCSVMHEALHNHYTQKSLSLSPGK
